# Assay results from PubChem BioAssay AID2685 (National Center for Advancing Translational Sciences (NCATS), 2010).
# Some of the results follow. Further columns of the screen follow, without active or inactive calls. Most of these compounds were active or inconclusive in the main read-out, so they are no random draw. Words in brackets tell the shape of the fitted curve; partial curves, single points and poor fits give uncertain potencies.
# Assay: qHTS Assay for Lipid Storage Modulators in Drosophila S3 Cells;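 as to cell number change: cells counted by Cell Tracker Red CMTPX staining in the red channel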
# Conditions: BODIPY lipid droplet fluorescence, 18-24 h; for cell number change: measured here: cell count max response, cells fed with added oleic acid
# Method in brief: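 Laser-scanning cytometry quantifies lipid droplet accumulation (500–530 nm total intensity; droplet/cell object ratio) in oleic acid-fed (400 uM added) Drosophila S3 cells treated with a concentration series. 20 uM Triacsin C defined 100% inhibition.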
# [1] = measured here: lipid fluorescence (Fed channel) AC50, cells fed with added oleic acid
# [2] = measured here: cell number channel AC50, cells fed with added oleic acid
SMILES,AC50 [1],cell number change [%],AC50 [2]
CNC(=S)Nc1cc(OC)ccc1OC,"0.731 µM [falling, full curve]",,
Cc1ccccc1OCC(=O)N/N=C1\SCC(=O)N1Cc1ccccc1,"20.6 µM [rising, single point]",-13.7,
CCN(CC)CCOC(=O)c1ccc(Cl)cc1,"29.1 µM [rising, single point]",15.2,
Cc1onc(-c2c(F)cccc2Cl)c1C(=O)NCc1ccc2c(c1)OCO2,"0.103 µM [rising, full curve, poor fit]",4.32,
O=C(Oc1ccccc1-c1csnn1)c1cccs1,,-13.6,"4.61 µM [falling, single point]"
CCc1nnc2c(NCCc3ccc(OC)c(OC)c3)nc3ccccc3n12,"14.6 µM [rising, partial curve]",8.33,
COC(=O)c1cc(S(=O)(=O)NCc2ccc(S(N)(=O)=O)cc2)oc1C,,-49.1,
CCSc1nc(C)cc(Oc2ccc(=O)n(C)n2)n1,"6.51 µM [falling, single point]",,
COc1ccc2nc3ccccc3nc2c1NC(=O)c1ccc(Cl)cc1,"16.4 µM [falling, single point]",36,"7.31 µM [rising, partial curve]"
COc1ccccc1C(=O)Nc1ccc(S(=O)(=O)N2CCc3ccccc32)cc1,"23.1 µM [rising, partial curve]",,
N#C/C(=C\c1ccc(Cl)cc1)c1nc(-c2ccco2)cs1,"18.4 µM [falling, single point]",-12.7,
Cn1c(SCC(=O)N2CCOCC2)nnc1-c1ccc2ncccc2c1,"0.13 µM [falling, full curve, poor fit]",,"1.03 µM [falling, full curve]"
COc1ccc(OC)c(NC(=O)Cn2c(CCC(=O)O)ccc2-c2ccc(C)cc2)c1,,,"0.58 µM [falling, single point]"
S=C(NCCCN1CCOCC1)Nc1ccc(Nc2ccccc2)cc1,"0.501 µM [falling, single point]",7.12,"0.501 µM [falling, single point]"
COc1cc(Cl)c(CN2CCC(CCC(=O)NC3CC3)CC2)cc1OC,"20.6 µM [falling, partial curve, poor fit]",-33.9,"0.58 µM [falling, partial curve, poor fit]"
COc1cc(CCCN2CCNC[C@@H]2C(C)O)cc(OC)c1OC (stereo partly drawn),"0.13 µM [rising, full curve, poor fit]",18.5,
S=c1nc2ccccc2c2nc(-c3cccnc3)[nH]n12,"29.1 µM [rising, single point]",26.1,
Cc1ccc2c(c1)NC(=O)C(CC(=O)NCCCN1CCCCC1C)O2 (stereo not drawn),"29.1 µM [rising, single point]",-3.99,
COc1ccc(NC(=O)c2cc(C3CC3)nc3c2cnn3C(C)C)cc1OC,"1.64 µM [falling, partial curve]",-14.5,

# Exported with bars between the fields: part of the list above
SMILES | AC50 [1] | cell number change [%] | AC50 [2]
CNC(=S)Nc1cc(OC)ccc1OC | 0.731 µM [falling, full curve] |  | 
Cc1ccccc1OCC(=O)N/N=C1\SCC(=O)N1Cc1ccccc1 | 20.6 µM [rising, single point] | -13.7 | 

# Following part

SMILES,AC50 [1],cell number change [%],AC50 [2]
Cc1ccc(NC(=O)C2CCCN(S(=O)(=O)c3c(C)noc3C)C2)cc1F (stereo not drawn),"2.06 µM [falling, single point]",-17.2,"0.103 µM [falling, full curve, poor fit]"
COc1ccc(-c2csc(NC(=O)c3ccccc3S(C)(=O)=O)n2)cc1,"5.8 µM [rising, full curve]",57.4,"0.92 µM [rising, partial curve, poor fit]"
CC(C)C[C@H](NC(=O)c1cc2cc(Cl)ccc2n1C)C(=O)N1CCC(C(=O)O)CC1,,16.8,"6.51 µM [rising, partial curve]"
Cc1ccc(C(=O)OCC(=O)NCc2ccco2)cc1C,"0.58 µM [rising, single point]",-20.3,
CCOc1ccc2[nH]c3nc(SCC(=O)NC4CC4)nnc3c2c1,"0.146 µM [falling, full curve, poor fit]",,
CCCCn1c(-c2cccc(Br)c2)nc2cc3[nH]c(=O)c(C(C)C)nc3cc21,"29.1 µM [falling, single point]",-23.3,
Cc1nn(C2CCS(=O)(=O)C2)c(Cl)c1/C=C/C(=O)OCC(=O)Nc1ccccc1[N+](=O)[O-] (stereo not drawn),"0.184 µM [rising, full curve]",,"0.00461 µM [rising, full curve, poor fit]"
COC(=O)c1cc(Br)c(=O)n(-c2nccs2)c1,"0.58 µM [rising, full curve]",-2.64,
Cc1nn(Cc2noc(C(=O)NCCc3ccccn3)n2)c(C)c1Br,"29.1 µM [falling, single point]",18.5,
COc1cc(-c2nc3sc(C)c(C)c3c(=O)o2)cc(OC)c1OC,"29.1 µM [rising, partial curve]",27.4,
O=C(COc1ccc2ccccc2c1)N/N=C/C1CC=CCC1 (stereo not drawn),"4.11 µM [rising, single point]",23.7,
CCOc1ccc(OCCC(=O)N(CCC2=CCCCC2)c2c(N)n(Cc3ccccc3)c(=O)[nH]c2=O)cc1,,-23.9,
Cc1ccc(CONC(=O)c2cccc([N+](=O)[O-])c2)cc1,,-31.2,"11.6 µM [falling, single point]"
CCCCn1c(N)c(N(CC(C)C)C(=O)c2cc(Cl)nc3ccccc23)c(=O)[nH]c1=O,,-25,"4.11 µM [falling, full curve, poor fit]"
CCOC(=O)c1sc(Nc2ccccc2)nc1C,"6.51 µM [falling, single point]",74.5,"6.51 µM [falling, single point]"
Nc1ccc(-c2nnc(-c3ccc(N)cc3)o2)cc1,"0.58 µM [rising, partial curve, poor fit]",4.93,
O=c1c2ccccc2nc(/C=C/c2ccc(Cl)cc2)n1CCO,,-30.8,"0.0651 µM [falling, full curve, poor fit]"
COc1ccc(/C=C/C(=O)OCC(=O)NCc2ccccc2)cc1OC,,39.7,"29.1 µM [rising, partial curve]"
